# In PubChem BioAssay AID2685 (National Center for Advancing Translational Sciences (NCATS), 2010):
# The other results are listed elsewhere or left out. The main result of the screen is listed elsewhere. These columns were measured beside it and carry no call. Most of these compounds were active or inconclusive in the main read-out, so they are no random draw. Words in brackets tell the shape of the fitted curve; partial curves, single points and poor fits give uncertain potencies.
# Assay: qHTS Assay for Lipid Storage Modulators in Drosophila S3 Cells;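 for cell number change: cells counted by Cell Tracker Red CMTPX staining in the red channel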
# Settings: BODIPY lipid droplet fluorescence, 18-24 h; for cell number change: measured here: cell count max response, cells fed with added oleic acid
# Summary of the method: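 Drosophila S3 cells got compounds at several concentrations plus oleic acid (400 uM solution). Laser-scanning cytometry with 488 nm excitation read lipid droplets at 500-530 nm and cells at 575-640 nm. Percent activity was relative to 20 uM Triacsin C.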
# [1] = measured here: cell number channel AC50, cells fed with added oleic acid
# [2] = measured here: lipid fluorescence (Fed channel) AC50, cells fed with added oleic acid
SMILES,cell number change [%],AC50 [1],AC50 [2]
COc1c(Cl)cc(Cl)cc1C(=O)n1nc(C)cc1C,-35.5,"0.206 µM [falling, full curve, poor fit]","18.4 µM [falling, single point]"
COCCOC1CCN(C(=O)C2CCC(=O)N(Cc3cccc(F)c3)C2)CC1 (centres undefined),5.34,"6.51 µM [falling, single point]",
CC1CCN(c2c(NCc3ccc(C(=O)N4CCc5ccccc54)cc3)c(=O)c2=O)CC1,10.9,,
CCc1nnc(NC(=O)CN2CCN(Cc3cccc(Cl)c3)CC2)s1,-22.3,,"29.1 µM [rising, partial curve, poor fit]"
COC(=O)CN(c1nc(C)cc(OC)n1)S(=O)(=O)c1ccc(C)cc1,-32,"10.3 µM [falling, partial curve, poor fit]",
Cc1ccc(-n2c(O)c(/C=N/n3cnnc3)c3ccccc3c2=O)cc1,-40.2,"13 µM [falling, partial curve, poor fit]","16.4 µM [falling, partial curve]"
CCC1(C)N(O)C(C)(C)C(c2ccc(OC)cc2)=[N+]1[O-] (centres undefined),4.87,,
Cc1c(Br)c([N+](=O)[O-])nn1C(C)C(=O)Nc1c(C)n(C)n(-c2ccccc2)c1=O (centres undefined),-16.9,"0.231 µM [falling, full curve, poor fit]",
CCOC(=O)c1c(NC(=O)CSc2nnc(-c3ccccc3)o2)sc(C(C)=O)c1C,21.2,,
Cc1cc(SCC(=O)N/N=C/c2ccco2)nc2ccccc12,-14.9,,
Cc1cc2ncn(C3CC(=O)N(C)C3=O)c2cc1C (centres undefined),-17.6,,
CN(C)S(=O)(=O)c1cccc(C(=O)OCC(=O)N2CCCC2=O)c1,-12,,"0.651 µM [falling, full curve]"
CCN(CC)C(=O)c1cc2c(=O)n3cccc(C)c3nc2s1,,"0.58 µM [rising, single point]",
COc1ccc(C2CC(C)=C(C#N)S(=O)(=O)C2C#N)cc1 (centres undefined),31.8,"20.6 µM [rising, partial curve, poor fit]","5.8 µM [rising, partial curve, poor fit]"
C=CCN=C1SC(CC)C(=O)N1S(=O)(=O)c1ccc(C)cc1 (centres undefined),35.7,"20.6 µM [rising, single point]",
C[C@@H](C(=O)NCCc1c[nH]c2ccccc12)[C@@H]1C[C@@]1(C)[C@@H](NC(=O)OCc1ccccc1)c1ccccc1,18,,"0.731 µM [rising, full curve, poor fit]"
COC(=O)Nc1ccc(S(=O)(=O)N2CCCC(C(=O)Nc3cccc4c3OCCO4)C2)cc1 (centres undefined),-13.4,,"0.146 µM [falling, full curve, poor fit]"
COC(=O)[C@@H]1Cc2c([nH]c3ccccc23)C2CCC(=O)N21 (some centres undefined),,"1.84 µM [rising, partial curve]",
O=C1c2ccccc2C(=O)N1CCOc1cccc(Br)c1,-15.3,,"29.1 µM [falling, single point]"

SMILES,cell number change [%],AC50 [1],AC50 [2]
Cc1ccccc1NC(=O)CC1C(=O)NCCN1C(=O)c1cccc(Cl)c1 (centres undefined),-15.3,,"6.31 µM [falling, full curve, poor fit]"
CCOC(=O)C1=C(CC)Nc2ccccc2N/C1=N\S(=O)(=O)c1ccc(C(=O)OCC)cc1,36,"20.6 µM [rising, single point]","0.092 µM [falling, full curve, poor fit]"
CC(=O)c1ccc(NC(=S)Nc2ccc3[nH]c(=O)[nH]c3c2)cc1,-72.2,"11.6 µM [falling, partial curve, poor fit]","29.1 µM [falling, partial curve, poor fit]"
C=CCn1c(-c2cc(OC)c(OC)c(OC)c2)n[nH]c1=S,,"6.51 µM [rising, single point]","6.51 µM [rising, single point]"
O=C(NCC1CCCO1)c1ccccc1-c1nc(-c2ccc(F)cc2)no1 (centres undefined),16.7,,
CC1CCC2(CC1)NC(=O)N(CC(=O)c1ccc[nH]1)C2=O (centres undefined),-21.4,"0.103 µM [falling, full curve, poor fit]",
Cc1ccc2c(c1)c1c3n2CC(=C2C(=O)OC(C)(C)OC2=O)NC3CCC1 (centres undefined),,"6.51 µM [rising, single point]",
CS(=O)(=O)N1CCc2cc(S(=O)(=O)N3CCN(Cc4ccc5c(c4)OCO5)CC3)ccc21,-14.4,,"4.11 µM [rising, partial curve]"
COc1ccc(-c2nc(NC(=O)c3ccc(OCC(=O)N4CCOCC4)c(OC)c3)sc2C)cc1,39.5,"2.06 µM [rising, full curve]","0.116 µM [rising, full curve, poor fit]"
Cc1ccc(N(CC(=O)NCc2ccco2)S(=O)(=O)c2ccccc2)cc1,-23.8,,"29.1 µM [falling, single point]"
Cc1ccc(S(=O)(=O)N2CCC(C(=O)O)CC2)cc1C(=O)O,1.16,,
CCOC(=O)[C@H]1[C@H]2COc3ccc(C)cc3[C@@H]2N2C(=O)c3ccc(C)cc3NC(=O)[C@@]12C,-29.9,"0.326 µM [falling, full curve, poor fit]",
COc1ccc(C(=O)NC2CCN(C(=S)Nc3ccccc3C)CC2)cc1,-52,"14.6 µM [falling, partial curve, poor fit]","32.6 µM [falling, partial curve, poor fit]"
Cc1cc(C)nc(NNC2=CC(=O)CC(C)(C)C2)n1,23.5,,"2.06 µM [rising, partial curve]"
CCCCN(C(=O)C(CCSC)N1C(=O)c2ccccc2C1=O)c1c(N)n(CCC)c(=O)[nH]c1=O (centres undefined),0.55,,"2.31 µM [rising, single point]"
Cc1ccccc1N(CC(=O)NCC1CCCO1)C(=O)C1(C)CC(=O)N=C2C=CC=CN21 (centres undefined),-88.7,"13 µM [falling, partial curve]","16.4 µM [falling, partial curve]"
CN1CCN(c2nc3c(c(=O)[nH]c(=O)n3C)n2CCCSc2ncccn2)CC1,15.7,,
Clc1ccc(-c2csc(=Nc3cccnc3)n2CCCn2ccnc2)cc1Cl,13.7,,"0.103 µM [rising, full curve, poor fit]"
O=C1Cc2ccccc2C(=O)N1c1ccccc1,,,"29.1 µM [falling, single point]"

SMILES,cell number change [%],AC50 [1],AC50 [2]
COc1ccnc(N2CCN(c3cccc(C(F)(F)F)c3)CC2)c1C#N,27.7,,"0.103 µM [rising, full curve, poor fit]"
CCc1ccc2[nH]c(=O)c(C(c3nnnn3Cc3ccco3)N3CCC(C)CC3)cc2c1 (centres undefined),-21.5,,
CN1CCN(NC(=O)c2ccccc2F)CC1,,,"0.231 µM [falling, full curve]"
COc1cc(/C=C(\C#N)c2[nH]nc(N)c2C#N)cc(OC)c1O,-0.668,"0.651 µM [falling, single point]",
COc1cc(NC(=O)c2ccc(OC)c([N+](=O)[O-])c2)ccc1NC(=O)c1ccco1,-58.4,"29.1 µM [falling, single point]","18.4 µM [falling, single point]"
CC(C)CC(=O)Nc1ccccc1-c1nnn(CC(=O)N2CCOCC2)n1,123,"23.1 µM [rising, partial curve]","1.16 µM [rising, full curve, poor fit]"
COC(=O)c1c(NC(=O)Cc2cccs2)sc(C)c1C,11.2,"0.0731 µM [rising, full curve, poor fit]","0.092 µM [rising, full curve]"
COc1ccccc1CCCNC(=O)C1CCC(=O)N(CCCN2CCCC2=O)C1 (centres undefined),21.8,,"16.4 µM [rising, single point]"
Cc1ccc(S(=O)(=O)NCc2nc3nc(C)cc(C)n3n2)c(C)c1,8.07,,"6.51 µM [falling, partial curve]"
CCCC(=O)Nc1ccc(C(=O)COC(=O)c2cc(C)oc2C)cc1,6.34,,
O=C(NC1CC1)C1=C[C@H](c2ccc(Br)cc2)C[C@H](OCc2ccc(CO)cc2)O1,19.6,,"5.8 µM [rising, full curve]"
CCC(=O)Nc1cccc(NC(=S)NC(=O)c2cccs2)c1,6.97,,"2.59 µM [rising, partial curve]"
Cc1ccc(C)c(NC(=O)Cc2csc(-c3ccccc3)n2)c1,,"2.31 µM [rising, partial curve]","6.51 µM [rising, single point]"
CC(NC(=O)COc1ccccc1)C(=O)N1CCN(c2ccccc2)CC1 (centres undefined),-1.51,,"32.6 µM [falling, single point]"
CCOC(=O)C1(Cc2cccc(F)c2)CCN(Cc2cn(CC)nc2C)CC1,20.8,,"29.1 µM [rising, single point]"
Cc1cc(C(=O)Nc2ccccc2Cl)n(-c2ccccc2)n1,,"6.51 µM [rising, single point]","6.51 µM [rising, single point]"
CNC(=S)N1CCC(n2cnc3ccccc32)CC1,-16.5,,"6.51 µM [falling, full curve, poor fit]"
COc1cc(C(=O)NC(=S)Nc2nccs2)cc(OC)c1OC,,"0.58 µM [rising, single point]",
NNC(=O)CNC(c1ccccc1)c1cc(Br)ccc1NC(=O)c1cccc(Cl)c1 (centres undefined),,"1.03 µM [rising, full curve, poor fit]","1.46 µM [rising, partial curve]"

# Exported with tabs: 4 of the compounds above.
SMILES	cell number change [%]	AC50 [1]	AC50 [2]
O=C(NC1CC1)C1=C[C@H](c2ccc(Br)cc2)C[C@H](OCc2ccc(CO)cc2)O1	19.6		5.8 µM [rising, full curve]
CCC(=O)Nc1cccc(NC(=S)NC(=O)c2cccs2)c1	6.97		2.59 µM [rising, partial curve]
Cc1ccc(C)c(NC(=O)Cc2csc(-c3ccccc3)n2)c1		2.31 µM [rising, partial curve]	6.51 µM [rising, single point]
CC(NC(=O)COc1ccccc1)C(=O)N1CCN(c2ccccc2)CC1 (centres undefined)	-1.51		32.6 µM [falling, single point]
